Data: article PMC3806365
No constants are given. Whether binding was seen depends on the method and setting. In cells and extracts the contact can be indirect. Some results given as binding are weak or reduced against the parent protein; the word gives no strength. For part of these data: Where a sequence is shown, tags or fusion partners need not be part of it.

Chains of the proteins cited; added tags and fusions are not shown.
UniProt P48722: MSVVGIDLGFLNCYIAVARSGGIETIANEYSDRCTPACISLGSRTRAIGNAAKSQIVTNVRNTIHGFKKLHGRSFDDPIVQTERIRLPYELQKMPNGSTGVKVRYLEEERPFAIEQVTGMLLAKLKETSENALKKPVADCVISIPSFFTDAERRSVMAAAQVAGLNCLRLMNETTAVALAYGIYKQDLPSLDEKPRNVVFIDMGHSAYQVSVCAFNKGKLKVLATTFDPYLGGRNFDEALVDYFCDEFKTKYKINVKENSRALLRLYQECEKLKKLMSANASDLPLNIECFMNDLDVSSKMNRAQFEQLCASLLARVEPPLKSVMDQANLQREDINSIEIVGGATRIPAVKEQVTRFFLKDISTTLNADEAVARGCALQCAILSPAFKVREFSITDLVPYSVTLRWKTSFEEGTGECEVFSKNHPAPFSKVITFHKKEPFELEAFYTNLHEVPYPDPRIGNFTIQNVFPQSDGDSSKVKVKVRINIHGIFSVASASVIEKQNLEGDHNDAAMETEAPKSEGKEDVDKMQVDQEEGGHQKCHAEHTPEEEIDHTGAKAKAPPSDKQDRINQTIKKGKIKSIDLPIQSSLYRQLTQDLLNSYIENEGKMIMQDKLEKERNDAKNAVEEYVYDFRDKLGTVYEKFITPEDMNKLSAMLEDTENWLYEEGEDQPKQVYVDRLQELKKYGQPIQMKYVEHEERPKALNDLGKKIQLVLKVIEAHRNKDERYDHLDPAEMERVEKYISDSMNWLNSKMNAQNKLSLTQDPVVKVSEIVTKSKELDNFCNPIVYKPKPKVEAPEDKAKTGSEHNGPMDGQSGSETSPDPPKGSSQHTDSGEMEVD

Legend:
[1] = target: T1, Nogo-A/RTN4-A (endogenous, mouse) (mouse (endogenous in brain and hippocampal neurons)) (UniProt Q99P72); experiment: co-IP; endogenous proteins, brain lysate from a 4-week-old mouse, 1 mg of total protein; 6 μg of rabbit anti-Nogo-A/B (Bianca), rabbit anti-Apg-1 or rabbit IgG; Western blot
T1 sequence: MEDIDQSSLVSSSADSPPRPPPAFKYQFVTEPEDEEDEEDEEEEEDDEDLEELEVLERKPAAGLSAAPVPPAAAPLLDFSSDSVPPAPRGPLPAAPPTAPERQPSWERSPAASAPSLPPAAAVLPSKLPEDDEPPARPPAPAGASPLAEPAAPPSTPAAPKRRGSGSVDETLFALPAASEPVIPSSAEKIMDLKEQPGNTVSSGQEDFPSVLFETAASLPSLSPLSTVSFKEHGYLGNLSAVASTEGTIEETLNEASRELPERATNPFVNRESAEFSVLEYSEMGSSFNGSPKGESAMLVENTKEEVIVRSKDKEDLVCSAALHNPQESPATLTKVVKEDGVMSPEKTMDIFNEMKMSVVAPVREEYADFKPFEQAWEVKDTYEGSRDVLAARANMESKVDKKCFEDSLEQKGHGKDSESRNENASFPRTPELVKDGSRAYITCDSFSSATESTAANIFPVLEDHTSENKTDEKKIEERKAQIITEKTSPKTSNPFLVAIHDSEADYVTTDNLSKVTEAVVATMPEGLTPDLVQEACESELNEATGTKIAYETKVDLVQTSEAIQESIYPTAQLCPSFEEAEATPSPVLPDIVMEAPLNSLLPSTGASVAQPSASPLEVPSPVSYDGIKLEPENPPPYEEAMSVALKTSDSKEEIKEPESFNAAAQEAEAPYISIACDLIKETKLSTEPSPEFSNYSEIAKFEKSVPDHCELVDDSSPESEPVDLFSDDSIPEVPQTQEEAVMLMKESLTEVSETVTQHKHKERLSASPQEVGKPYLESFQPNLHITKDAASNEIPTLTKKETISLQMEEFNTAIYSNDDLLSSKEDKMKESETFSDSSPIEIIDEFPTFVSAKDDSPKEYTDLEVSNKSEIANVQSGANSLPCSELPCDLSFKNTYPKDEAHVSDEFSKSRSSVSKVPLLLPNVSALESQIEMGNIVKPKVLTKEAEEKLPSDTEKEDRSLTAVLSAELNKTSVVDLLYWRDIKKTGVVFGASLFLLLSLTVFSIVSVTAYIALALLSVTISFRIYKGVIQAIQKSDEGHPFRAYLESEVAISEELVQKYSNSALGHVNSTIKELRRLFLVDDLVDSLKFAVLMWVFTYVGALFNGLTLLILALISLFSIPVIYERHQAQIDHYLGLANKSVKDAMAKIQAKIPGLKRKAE

[2] = target: T1, Nogo-A/RTN4-A (endogenous, mouse) (mouse (endogenous in brain and hippocampal neurons)); experiment: proximity ligation; endogenous Nogo-A and Apg-1 in mouse hippocampal neurons cultured for 20 days, Nogo+/+ against Nogo-/- neurons; also under hypoxic conditions (results not shown): no change in signals
[3] = target: T2, Nogo-A–EGFP (full-length rat Nogo-A in pEGFP-N3) (rat) (UniProt Q9JK11); experiment: proximity ligation; adherent CHO-K1 cells transfected with Nogo-A–EGFP or Nogo-B–EGFP and EBFP2–Apg-1, fixed after 2 days; rabbit Bianca antiserum and mouse anti-Apg-1, Duolink probes
T2 sequence: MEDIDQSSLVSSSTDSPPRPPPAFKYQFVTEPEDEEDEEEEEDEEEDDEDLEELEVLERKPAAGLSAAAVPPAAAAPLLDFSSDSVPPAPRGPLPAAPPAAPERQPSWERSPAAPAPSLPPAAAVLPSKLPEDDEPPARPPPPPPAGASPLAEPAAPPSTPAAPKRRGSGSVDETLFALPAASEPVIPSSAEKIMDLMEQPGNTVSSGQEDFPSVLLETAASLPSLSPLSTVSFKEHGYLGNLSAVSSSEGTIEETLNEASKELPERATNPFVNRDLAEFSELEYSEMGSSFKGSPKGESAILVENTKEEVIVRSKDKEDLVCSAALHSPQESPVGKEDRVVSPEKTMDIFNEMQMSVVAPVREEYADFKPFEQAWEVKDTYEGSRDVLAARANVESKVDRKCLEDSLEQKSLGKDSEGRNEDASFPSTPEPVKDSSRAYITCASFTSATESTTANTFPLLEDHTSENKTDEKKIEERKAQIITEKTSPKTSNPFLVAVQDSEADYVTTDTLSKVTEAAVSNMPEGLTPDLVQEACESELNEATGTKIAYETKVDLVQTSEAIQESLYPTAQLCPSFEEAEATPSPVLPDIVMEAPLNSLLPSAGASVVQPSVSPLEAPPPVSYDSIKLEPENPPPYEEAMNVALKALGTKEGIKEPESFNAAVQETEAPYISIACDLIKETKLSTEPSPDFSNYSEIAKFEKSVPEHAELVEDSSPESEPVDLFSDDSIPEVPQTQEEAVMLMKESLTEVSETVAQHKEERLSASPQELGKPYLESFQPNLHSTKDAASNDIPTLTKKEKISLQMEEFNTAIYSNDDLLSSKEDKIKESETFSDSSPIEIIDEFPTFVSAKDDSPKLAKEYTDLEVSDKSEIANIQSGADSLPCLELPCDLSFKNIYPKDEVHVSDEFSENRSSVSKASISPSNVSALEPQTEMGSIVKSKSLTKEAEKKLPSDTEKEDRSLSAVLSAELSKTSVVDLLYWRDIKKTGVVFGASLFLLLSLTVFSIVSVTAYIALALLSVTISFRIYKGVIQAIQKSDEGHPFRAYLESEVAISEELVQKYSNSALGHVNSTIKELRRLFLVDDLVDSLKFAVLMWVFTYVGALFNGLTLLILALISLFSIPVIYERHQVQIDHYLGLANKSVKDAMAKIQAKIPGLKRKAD

Substance	binding [1]	binding [2]	binding [3]
Apg-1 (endogenous, mouse) (from UniProt P48722 1-838)	binds	binds	–
EBFP2–Apg-1 fusion protein (mouse Apg-1 open reading frame) (from UniProt P48722 1-838)	–	–	binds
